In paper PMC2614481 one finds binding data, which are given here for six molecules.

Protein sequences, listed by entry. Tags and fused reporters are not part of them.
UniProt Q9C0X6: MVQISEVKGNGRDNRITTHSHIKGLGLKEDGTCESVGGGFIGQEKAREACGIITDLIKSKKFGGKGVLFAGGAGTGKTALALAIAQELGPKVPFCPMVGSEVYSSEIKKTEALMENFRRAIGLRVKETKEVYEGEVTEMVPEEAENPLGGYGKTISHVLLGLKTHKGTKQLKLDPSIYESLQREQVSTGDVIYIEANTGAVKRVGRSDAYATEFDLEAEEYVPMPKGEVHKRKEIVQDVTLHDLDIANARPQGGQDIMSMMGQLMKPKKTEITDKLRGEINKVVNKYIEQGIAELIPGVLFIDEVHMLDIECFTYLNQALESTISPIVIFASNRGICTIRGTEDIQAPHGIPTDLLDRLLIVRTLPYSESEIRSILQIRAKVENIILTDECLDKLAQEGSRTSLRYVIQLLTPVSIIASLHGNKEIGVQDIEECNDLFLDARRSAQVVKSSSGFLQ

Results are given in words; binding and its absence hold for the method and conditions named. In cells and extracts the contact can be indirect. Here binding means that the protein was enriched with, or labelled near, the bait; the list need not be complete.

Assay in all cases: affinity purification with mass spectrometry; TAP of baits TAP-tagged at their genes from S. pombe extracts; eluates on 6-18% gels, Coomassie, bands and slices identified by MALDI peptide mapping and LC-MS/MS; common background removed, A-index cut-off 1.75
Experiment [1] addresses RVB1 (S. pombe) (S. pombe) (UniProt Q9C0X6).
The target of experiment [2] is T1, IES6 (S. pombe) (S. pombe) (UniProt Q9UTE8).
T1 sequence: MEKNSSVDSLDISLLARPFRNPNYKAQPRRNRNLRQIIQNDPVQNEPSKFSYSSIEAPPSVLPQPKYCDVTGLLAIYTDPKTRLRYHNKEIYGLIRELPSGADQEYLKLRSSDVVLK

Experiment [3] deals with T2, Sp_Png2 (S. pombe) (UniProt O74736).
T2 sequence: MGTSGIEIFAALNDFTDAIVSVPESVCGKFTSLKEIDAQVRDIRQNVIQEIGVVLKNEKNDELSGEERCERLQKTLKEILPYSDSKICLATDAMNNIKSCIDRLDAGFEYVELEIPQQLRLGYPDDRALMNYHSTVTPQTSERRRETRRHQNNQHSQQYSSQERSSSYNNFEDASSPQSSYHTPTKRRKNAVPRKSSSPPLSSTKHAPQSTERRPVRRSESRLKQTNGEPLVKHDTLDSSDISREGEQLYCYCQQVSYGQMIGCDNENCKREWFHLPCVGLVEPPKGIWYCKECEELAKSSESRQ

Experiment [4] deals with T3, Clr6p (S. pombe) (S. pombe) (UniProt O59702).
T3 sequence: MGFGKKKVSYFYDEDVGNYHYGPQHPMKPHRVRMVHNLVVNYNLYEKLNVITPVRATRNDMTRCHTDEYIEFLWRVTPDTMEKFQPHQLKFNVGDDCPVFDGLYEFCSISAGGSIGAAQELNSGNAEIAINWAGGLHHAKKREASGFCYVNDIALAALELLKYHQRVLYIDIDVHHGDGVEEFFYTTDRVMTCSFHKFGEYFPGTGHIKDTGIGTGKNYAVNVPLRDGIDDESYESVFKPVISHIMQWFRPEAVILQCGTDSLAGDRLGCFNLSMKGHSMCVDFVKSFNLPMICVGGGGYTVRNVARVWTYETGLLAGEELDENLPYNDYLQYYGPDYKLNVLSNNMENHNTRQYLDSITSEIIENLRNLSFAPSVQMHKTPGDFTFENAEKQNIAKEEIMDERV

B1: IEC1 (S. pombe) (protein, UniProt Q9UTM0 1-249)
chain: MSISSDTSGSVPGSPIDLEPESETICHWQSCEQDLLTLDNLVHHIHNGTTSNLRLISNINSILDHIGNRRPKYTCEWDDCPRKGMVQTSRFALVAHLRSHTGEKPFICSVPECDRSFTRSDALAKHMRTVHEADTLRPSDPIPKAHPMHPQNVANAMVQSAREARAQQQMHGVGNTNEDVENWLDAASMPKTSHDMYRLQKRKLQWVKEERTMLANHLEALERKLIDARNRKEKILNEIVKQVDPSISR
B1: the binding entry in experiment [1] and in experiment [2] was “binds” in each case.

B2: LAF2 (S. pombe) (protein, UniProt O74443 1-272)
chain: MQILKDQENLNPDGGSFVLITPPLSPPKQKSLSYTNISRRHGMRACMKGIVYEVYKNQPKLWLQQELIWLRRKRIHPIPKARRNNHVGRWANRHSNVSSSSGSRGRSSVSSRDSSPSYSGALRSAERSISSSPSTIEARRRKSARGNGLNGAIDVANLPFEELPNFCPDMSVLDNRTHPRTLKAEWKGPPLDLSDDPYRDLLHPAELHLASTLRLPCLIYLDNKKRIFAEWHHRRQQGLTFRKTDAQRASRVDVNKASRLWKAFHEVGFFDD
For the molecule B2, the binding entry in experiment [3] and in experiment [4] was “binds” in each case.

B3: IES2 (S. pombe) (protein, UniProt O14210 1-295)
chain: MARRRSTRRALVETPSDLNAQDSDSLSVSTKEELGDDALAAEEGQSVLDEQEIEEALEEDDTNYEEDIIDDEESAQVDEEELEEEEEEEEDATPEPVVTSKKNSRSKPKNGGASKRKASRRTVVDEDSENLEGDEEDGSFSDLKDLYSNPMPAQTTPVSMRMTKRQRAIQGILEEGEEDELLELPPETSGRKKLTPEEMALRRIENARRRKNQSERRLEEEKMETINRLLKRQSNTGKPRRGRAPNNPTSDSISRSKAVPKDRINMYQPFQCVRFKSTKEGSSLGVPEPLIRFFS
Take B3: the binding entry in experiment [1] and in experiment [2] was “binds” in each case.

B4: IEC3 (S. pombe) (protein, UniProt O94704 1-168)
chain: MASVKSFKRKYLKLRKSFDSVVLETEEIEQKIAEISEVYRRILLENAHLNDLLIDMNSTVLPTPPASPPGSPYWEAKPVSHTVFLESPSDVFTLEKPIASTHRWLSKLTALSKSTNSTLSTPKSFHSPLQSRGISPSSAQSSAAVSSSRKQKRKRTSEGPSERRARKK
Consider B4, for which the binding result in experiment [1] and in experiment [2] was “binds” each time.

B5: ARP5 (S. pombe) (protein, UniProt Q9Y7X8 1-721)
chain: MKIYAVREPVFSGPTPSFQNVSNDIPLVIDNGSWQLRAGWGGEKDPKLVFDNLVSRYRDRKLSRTSTLVGNDTLIEVGSRSIARSPFERNVISNWDLMEQVLDYTFLKLGIDRMEHPICMTEPLANPTYVRSTMTELLFELYNAPSVAYGIDGLFSFYHNTKPSSSGIVLNLGNAASHVIPVLNGERILSEAKRISWGGSQSSSYLLKLFQIKYPSFPIKMLPSQAELLMHDHCHVSSDYTHDIAHALDRDILERDEIVLQFPYTEAAAQEKSQEELELIAERKRESGRRLQAQAAIKRKEKAAERDRELATLTELQQQSLVLSRRAFQRALEEAGFEDESQLNAQVKNVQAKIRRAQRDQQRQEESEGSLDVTEIDVEQAFPLLNVPDAELDEAGLRQKRHQRLMKANYDARVRAKAEKAIEEAAEAERAEADERLRLENFSTWVNEKRETHKILLEKISKNKRLKFELNDRKSHASQMRMKSLATLASEQPIQKRKRKDQSEDNFGARDEDWKVYHDVLTAEQLEEERKKLLDQIYSLEKQLLEYDSQFTQANTYDTLNDPRATLLYAFTRGVSDFDVNDVAQAFQLHLNVEQIRVPEVIFSPSIVGIDQAGILEIMRSILQRHSLEEQQKLVSNVLITGGLGSLPGMETRIKRELTSIMPVGSSINVFRASNPLLDAWKGASEWSVTEKFKAAKVTREEYLEKGPEYIKEHSLGNINS
For B5, in experiment [2], the binding entry was “binds”.

B6: IES4 (S. pombe) (protein, UniProt Q9P7S9 1-194)
chain: MSETLVLHLKVPTERFREVLSSLKEKQNFTASPSSQPKPQERPFQMKKPRAPYGMGPRAMKRREKAEKEKLGVVNDELAESSKPSSGAATPTRSAPKSSAGLINSGLRALDRSGKPCRRWEKKPISIRSISTIVWKLPLWIGTPDSIPNTPELPVKTTLDSVNEIAAALSTHAESSPMDATSPVDSMPESATGI
Take B6: the binding result in experiment [1] and in experiment [2] was “binds” each time.
